The target of assay [1] is β-catenin (mouse) (UniProt Q02248). Put plainly: co-immunoprecipitation from lysates of co-transfected COS-1 cells.
The target is the same in assay [2]. Put plainly: co-immunoprecipitation with anti-β-catenin antibody from gel-filtration fraction of adult mouse heart extract.

Amino acid sequences for entries named in this document (tags omitted).
UniProt Q02248: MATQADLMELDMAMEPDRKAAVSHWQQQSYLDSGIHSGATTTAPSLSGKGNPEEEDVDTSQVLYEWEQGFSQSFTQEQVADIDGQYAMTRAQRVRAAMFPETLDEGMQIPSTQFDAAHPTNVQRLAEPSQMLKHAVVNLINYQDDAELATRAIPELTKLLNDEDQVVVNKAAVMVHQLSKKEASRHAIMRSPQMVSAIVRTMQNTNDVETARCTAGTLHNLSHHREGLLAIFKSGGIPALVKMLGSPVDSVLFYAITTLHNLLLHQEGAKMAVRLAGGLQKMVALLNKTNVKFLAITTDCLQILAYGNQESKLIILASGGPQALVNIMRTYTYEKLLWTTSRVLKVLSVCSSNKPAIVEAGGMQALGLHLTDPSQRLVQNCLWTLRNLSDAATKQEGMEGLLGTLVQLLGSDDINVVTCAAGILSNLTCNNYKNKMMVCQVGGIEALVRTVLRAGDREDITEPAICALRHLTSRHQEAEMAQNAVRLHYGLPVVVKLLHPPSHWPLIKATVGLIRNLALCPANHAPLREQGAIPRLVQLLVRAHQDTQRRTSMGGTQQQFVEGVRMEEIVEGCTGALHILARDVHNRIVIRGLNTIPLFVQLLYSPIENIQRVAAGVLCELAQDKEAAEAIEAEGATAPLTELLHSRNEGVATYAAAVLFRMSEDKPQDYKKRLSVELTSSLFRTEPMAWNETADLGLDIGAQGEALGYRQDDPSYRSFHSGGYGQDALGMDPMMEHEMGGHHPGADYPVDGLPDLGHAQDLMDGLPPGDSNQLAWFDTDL

Results are given in words; binding and its absence hold for the method and conditions named. In cells and extracts the contact can be indirect. Some results given as binding are weak or reduced against the parent protein; the word gives no strength.

B1: murine Ozz protein (protein)
chain: MAAPSEHVGLGAPRSPARPEPPPTRFHQVHGANIRMDPSGTRATRVESFAHGVCFSREPLAPGQVFLVEIEEKELGWCGHLRLGLTALDPASLAAVPEFSLPDLVSLGHSWVFAITRHHNRVPREGQPEAEAAVPSGPQALLVEPYLRIEQFRIPRDRLVGRSRPGLYSHLLDQLYEQNVLPPTARRSRLGVLFCPREDGTADMHIIINGEDMGPSARGLPAAQPLYAVVDVFASTKSVRLVQLEYGLPSLQTLCRLVIQKRVVHRLAIDVLHLPKGLKDFCKYE
B1: the binding entry with β-catenin (mouse) [1] and with β-catenin (mouse) [2] was “binds” in each case.

The values are drawn from US7074908.
